The values that follow come from publication PMC8956710.

Sequences of proteins named here, by UniProt entry; tags and fusion partners are left off. A change or cut given only in a name is not applied to a line headed by its entry.
UniProt Q5XUX0: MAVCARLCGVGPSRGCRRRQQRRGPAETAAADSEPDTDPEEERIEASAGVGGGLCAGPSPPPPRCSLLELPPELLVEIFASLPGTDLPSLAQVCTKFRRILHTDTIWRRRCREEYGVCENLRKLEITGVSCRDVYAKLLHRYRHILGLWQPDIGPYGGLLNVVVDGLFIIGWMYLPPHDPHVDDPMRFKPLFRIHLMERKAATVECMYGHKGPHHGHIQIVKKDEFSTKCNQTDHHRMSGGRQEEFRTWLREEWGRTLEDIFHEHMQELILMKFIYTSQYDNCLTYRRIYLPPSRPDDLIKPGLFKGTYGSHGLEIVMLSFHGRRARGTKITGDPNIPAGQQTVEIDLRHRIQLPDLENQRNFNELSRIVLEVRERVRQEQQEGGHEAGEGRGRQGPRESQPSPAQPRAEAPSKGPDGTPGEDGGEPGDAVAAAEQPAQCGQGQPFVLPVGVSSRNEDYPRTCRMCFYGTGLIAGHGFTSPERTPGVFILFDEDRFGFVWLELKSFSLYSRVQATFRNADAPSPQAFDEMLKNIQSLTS

No constants are given. Whether binding was seen depends on the method and setting. In cells and extracts the contact can be indirect. Where a sequence is shown, tags or fusion partners need not be part of it.

In the experiment the target is T1, Flag-STYX (serine/threonine/tyrosine interacting protein) (UniProt Q8WUJ0).
T1 sequence: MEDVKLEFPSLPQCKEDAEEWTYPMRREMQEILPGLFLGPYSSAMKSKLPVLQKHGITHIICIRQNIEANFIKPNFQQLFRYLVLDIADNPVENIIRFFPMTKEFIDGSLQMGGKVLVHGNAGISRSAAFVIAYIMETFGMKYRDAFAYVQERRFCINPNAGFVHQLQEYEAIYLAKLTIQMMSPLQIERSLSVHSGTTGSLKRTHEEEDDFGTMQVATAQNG
Nature of the experiment: co-IP; SGC-7901 cells co-transfected with expression vectors for 48 h, lysed with IP lysis buffer; about 1 mg total protein with 5 µg anti-Flag or anti-Myc antibody or IgG overnight at 4 °C, Protein A/G PLUS agarose beads, western blot.

Consider “Myc-FBXO31ΔF (F-box domain deletion mutant) (from UniProt Q5XUX0)”, for which the binding entry is on record as “no binding”.
